At least one compound was matched to its structure with a doubt left.
Test system: cell-free particulate fractions of methane-grown methylotrophs
Experiment: inhibitors and electron donors of n-alkane conversion to sec. alcohols by cell-free particulate fractions
Assay type: biochemical
Text: The conditions for preparing the cell suspensions or the cell-free particulate fractions from methane-grown methylotroph microorganisms is the same as described above.

`O=C1O[C@H]([C@@H](O)CO)C(O)=C1O` [Ascorbate] was tested, and the “use as electron donor for hydroxylation of n-alkanes” value was “could also be utilized as an electron donor”.

— patent US4250259A, “Microbiological production of ketones from C3 -C6 secondary alcohols” (priority 1979, dated 1981)
